Experimental data from PMC6284738.
These are yes or no findings as the source states them, for the method shown. In cells and extracts the contact can be indirect. Some results given as binding are weak or reduced against the parent protein; the word gives no strength.

Amino acid sequences for entries named in this document (tags omitted).
UniProt Q05397: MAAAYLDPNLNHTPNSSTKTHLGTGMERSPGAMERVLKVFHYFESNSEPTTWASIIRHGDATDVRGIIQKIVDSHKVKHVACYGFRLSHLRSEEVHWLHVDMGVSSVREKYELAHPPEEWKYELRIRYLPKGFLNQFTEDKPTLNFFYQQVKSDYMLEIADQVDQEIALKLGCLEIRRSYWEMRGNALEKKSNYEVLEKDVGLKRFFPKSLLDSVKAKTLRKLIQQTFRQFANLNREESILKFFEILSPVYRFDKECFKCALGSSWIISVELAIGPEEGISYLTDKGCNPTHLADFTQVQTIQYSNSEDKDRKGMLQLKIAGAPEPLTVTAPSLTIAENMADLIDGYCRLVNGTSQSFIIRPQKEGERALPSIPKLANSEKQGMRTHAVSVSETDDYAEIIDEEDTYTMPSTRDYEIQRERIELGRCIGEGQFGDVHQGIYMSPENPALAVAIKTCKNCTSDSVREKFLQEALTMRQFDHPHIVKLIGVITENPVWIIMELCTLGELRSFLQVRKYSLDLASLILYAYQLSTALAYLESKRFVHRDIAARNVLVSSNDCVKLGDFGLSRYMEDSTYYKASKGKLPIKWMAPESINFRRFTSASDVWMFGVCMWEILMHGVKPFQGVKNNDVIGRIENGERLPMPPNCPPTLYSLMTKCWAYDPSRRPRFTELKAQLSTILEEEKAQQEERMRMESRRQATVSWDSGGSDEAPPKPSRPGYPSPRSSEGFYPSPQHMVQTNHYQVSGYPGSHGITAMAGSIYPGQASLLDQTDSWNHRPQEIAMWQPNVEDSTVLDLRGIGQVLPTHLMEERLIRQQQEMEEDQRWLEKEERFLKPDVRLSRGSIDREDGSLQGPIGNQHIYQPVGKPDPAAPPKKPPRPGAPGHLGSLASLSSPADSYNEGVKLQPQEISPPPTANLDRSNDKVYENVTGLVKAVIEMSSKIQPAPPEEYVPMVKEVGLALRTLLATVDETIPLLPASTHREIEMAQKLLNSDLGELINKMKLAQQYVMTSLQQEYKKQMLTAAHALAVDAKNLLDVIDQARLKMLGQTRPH

How the values were obtained:
[1] = molecular target: T1, Calretinin (CR), endogenous in MSTO-211H wt cells (human (endogenous in MSTO-211H)) (UniProt P22676); assay: co-IP; Cell lysates (SPC111-CR, MSTO-CR, MSTO wt; 150 mM NaCl, 1% Triton X-100, 50 mM Tris HCl pH 8.0, protease and phosphatase inhibitors); CR precipitated with anti-CR antiserum CR 7699/4 and protein A MicroBeads, 4°C; washes with 150 mM NaCl, 1% NP-40, 0.5% sodium deoxycholate, 0.1% SDS, 50 mM Tris HCl pH 8.0; Western blot with anti-FAK; normal rabbit IgG as negative IP control
T1 sequence: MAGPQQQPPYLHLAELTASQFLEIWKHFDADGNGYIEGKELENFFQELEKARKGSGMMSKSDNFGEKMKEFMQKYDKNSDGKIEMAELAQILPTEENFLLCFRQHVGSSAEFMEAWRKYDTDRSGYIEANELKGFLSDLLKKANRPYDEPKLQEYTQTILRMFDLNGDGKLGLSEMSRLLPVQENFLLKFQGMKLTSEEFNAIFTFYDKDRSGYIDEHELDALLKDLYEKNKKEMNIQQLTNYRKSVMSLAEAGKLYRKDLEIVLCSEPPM

[2] = molecular target: T2, Calretinin (CR), lentivirally overexpressed from pLV-CALB2 (UniProt P22676); assay: as above
T2 sequence: T1 sequence

Focal adhesion kinase (FAK) (from UniProt Q05397 1-1052)
binding [1]: binds | binding [2]: binds
